Measured values reported in paper doi:10.1101/2021.06.10.447992.
No constants are given. Whether binding was seen depends on the method and setting. In cells and extracts the contact can be indirect. These calls come from enrichment with a bait or labelling near it, and not all partners need be listed. Where a sequence is shown, tags or fusion partners need not be part of it.

T1: COA7 with a C-terminal Flag epitope, expressed in COA7 knockout HEK293T cells (human) (UniProt Q96BR5)
T1 sequence: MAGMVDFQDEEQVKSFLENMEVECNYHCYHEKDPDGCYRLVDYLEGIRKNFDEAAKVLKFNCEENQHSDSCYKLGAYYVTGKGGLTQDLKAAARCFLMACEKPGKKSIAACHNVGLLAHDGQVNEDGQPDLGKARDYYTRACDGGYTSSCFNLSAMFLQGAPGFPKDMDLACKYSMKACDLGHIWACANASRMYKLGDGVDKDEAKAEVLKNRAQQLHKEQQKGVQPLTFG


Molecular target: T1, COA7 with a C-terminal Flag epitope, expressed in COA7 knockout HEK293T cells (human)
Experiment: affinity purification with mass spectrometry

Binder	binding
RCN2 (protein, UniProt Q14257 23-317) GKAEELHYPLGERRSDYDREALLGVQEDVDEYVKLGHEEQQKRLQAIIKKIDLDSDGFLTESELSSWIQMSFKHYAMQEAKQQFVEYDKNSDDTVTWDEYNIQMYDRVIDFDENTALDDAEEESFRKLHLKDKKRFEKANQDSGPGLSLEEFIAFEHPEEVDYMTEFVIQEALEEHDKNGDGFVSLEEFLGDYRWDPTANEDPEWILVEKDRFVNDYDKDNDGRLDPQELLPWVVPNNQGIAQEEALHLIDEMDLNGDKKLSEEEILENPDLFLTSEATDYGRQLHDDYFYHDEL	binds
CHCHD4 (protein, UniProt Q8N4Q1 1-142) MSYCRQEGKDRIIFVTKEDHETPSSAELVADDPNDPYEEHGLILPNGNINWNCPCLGGMASGPCGEQFKSAFSCFHYSTEEIKGSDCVDQFRAMQECMQKYPDLYPQEDEDEEEEREKKPAEQAEETAPIEATATKEEEGSS	binds

Further lines, results first:

binding	Binder
binds	mitochondrial protease LONP1 (enzyme, UniProt P36776 68-959) FWEASSRGGGAFSGGEDASEGGAEEGAGGAGGSAGAGEGPVITALTPMTIPDVFPHLPLIAITRNPVFPRFIKIIEVKNKKLVELLRRKVRLAQPYVGVFLKRDDSNESDVVESLDEIYHTGTFAQIHEMQDLGDKLRMIVMGHRRVHISRQLEVEPEEPEAENKHKPRRKSKRGKKEAEDELSARHPAELAMEPTPELPAEVLMVEVENVVHEDFQVTEEVKALTAEIVKTIRDIIALNPLYRESVLQMMQAGQRVVDNPIYLSDMGAALTGAESHELQDVLEETNIPKRLYKALSLLKKEFELSKLQQRLGREVEEKIKQTHRKYLLQEQLKIIKKELGLEKDDKDAIEEKFRERLKELVVPKHVMDVVDEELSKLGLLDNHSSEFNVTRNYLDWLTSIPWGKYSNENLDLARAQAVLEEDHYGMEDVKKRILEFIAVSQLRGSTQGKILCFYGPPGVGKTSIARSIARALNREYFRFSVGGMTDVAEIKGHRRTYVGAMPGKIIQCLKKTKTENPLILIDEVDKIGRGYQGDPSSALLELLDPEQNANFLDHYLDVPVDLSKVLFICTANVTDTIPEPLRDRMEMINVSGYVAQEKLAIAERYLVPQARALCGLDESKAKLSSDVLTLLIKQYCRESGVRNLQKQVEKVLRKSAYKIVSGEAESVEVTPENLQDFVGKPVFTVERMYDVTPPGVVMGLAWTAMGGSTLFVETSLRRPQDKDAKGDKDGSLEVTGQLGEVMKESARIAYTFARAFLMQHAPANDYLVTSHIHLHVPEGATPKDGPSAGCTIVTALLSLAMGRPVRQNLAMTGEVSLTGKILPVGGIKEKTIAAKRAGVTCIVLPAENKKDFYDLAAFITEGLEVHFVEHYREIFDIAFPDEQAEALAVER
binds	coproporphyrinogen oxidase (CPOX) (enzyme, UniProt P36551 111-454) TSLGRPEEEEDELAHRCSSFMAPPVTDLGELRRRPGDMKTKMELLILETQAQVCQALAQVDGGANFSVDRWERKEGGGGISCVLQDGCVFEKAGVSISVVHGNLSEEAAKQMRSRGKVLKTKDGKLPFCAMGVSSVIHPKNPHAPTIHFNYRYFEVEEADGNKQWWFGGGCDLTPTYLNQEDAVHFHRTLKEACDQHGPDLYPKFKKWCDDYFFIAHRGERRGIGGIFFDDLDSPSKEEVFRFVQSCARAVVPSYIPLVKKHCDDSFTPQEKLWQQLRRGRYVEFNLLYDRGTKFGLFTPGSRIESILMSLPLTARWEYMHSPSENSKEAEILEVLRHPRDWVR
